{
  "sequences": {"note": "Sequences of proteins named here, by UniProt entry; tags and fusion partners are left off.", "UniProt P49736": "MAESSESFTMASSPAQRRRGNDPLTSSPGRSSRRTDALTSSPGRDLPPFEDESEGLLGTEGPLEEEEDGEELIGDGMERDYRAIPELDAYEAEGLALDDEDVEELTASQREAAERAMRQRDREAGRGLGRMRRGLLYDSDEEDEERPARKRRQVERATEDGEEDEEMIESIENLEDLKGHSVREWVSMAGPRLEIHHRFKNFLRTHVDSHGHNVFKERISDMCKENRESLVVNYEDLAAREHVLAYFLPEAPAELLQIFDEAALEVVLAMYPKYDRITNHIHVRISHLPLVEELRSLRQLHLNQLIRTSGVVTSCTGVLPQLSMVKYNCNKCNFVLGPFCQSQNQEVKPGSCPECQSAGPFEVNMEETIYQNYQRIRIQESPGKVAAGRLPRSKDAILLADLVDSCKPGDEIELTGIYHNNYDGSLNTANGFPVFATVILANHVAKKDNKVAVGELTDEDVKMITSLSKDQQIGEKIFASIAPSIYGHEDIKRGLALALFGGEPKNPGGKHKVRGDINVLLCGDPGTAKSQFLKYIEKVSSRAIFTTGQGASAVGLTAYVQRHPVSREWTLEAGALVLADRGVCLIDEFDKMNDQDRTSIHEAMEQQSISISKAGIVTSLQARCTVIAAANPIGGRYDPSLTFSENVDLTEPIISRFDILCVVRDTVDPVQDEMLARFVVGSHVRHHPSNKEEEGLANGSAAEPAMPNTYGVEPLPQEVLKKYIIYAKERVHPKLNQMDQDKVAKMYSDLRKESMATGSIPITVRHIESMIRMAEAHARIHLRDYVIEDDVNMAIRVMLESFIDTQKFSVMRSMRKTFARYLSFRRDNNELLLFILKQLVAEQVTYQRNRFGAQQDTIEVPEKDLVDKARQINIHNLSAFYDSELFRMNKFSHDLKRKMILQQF", "UniProt Q9H4L4": "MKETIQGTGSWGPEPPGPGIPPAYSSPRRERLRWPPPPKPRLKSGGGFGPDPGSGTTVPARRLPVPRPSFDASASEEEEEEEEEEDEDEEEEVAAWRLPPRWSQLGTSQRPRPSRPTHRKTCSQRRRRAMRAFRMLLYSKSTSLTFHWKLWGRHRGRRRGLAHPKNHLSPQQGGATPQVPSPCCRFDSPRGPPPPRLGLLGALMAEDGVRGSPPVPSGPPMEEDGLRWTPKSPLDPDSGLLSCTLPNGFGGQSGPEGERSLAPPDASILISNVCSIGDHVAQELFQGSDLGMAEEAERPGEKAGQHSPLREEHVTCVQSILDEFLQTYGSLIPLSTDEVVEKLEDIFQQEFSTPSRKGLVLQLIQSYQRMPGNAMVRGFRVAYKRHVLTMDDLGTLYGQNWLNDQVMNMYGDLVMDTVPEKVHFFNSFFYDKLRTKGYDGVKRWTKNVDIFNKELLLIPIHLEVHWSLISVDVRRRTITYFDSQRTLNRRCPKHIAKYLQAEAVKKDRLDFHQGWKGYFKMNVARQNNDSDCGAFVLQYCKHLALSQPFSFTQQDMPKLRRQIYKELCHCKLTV"},
  "source": "paper PMC11816892",
  "molecules": {"B1": {"name": "VRK1-C155 (protein, UniProt Q99986 1-396)", "chain": "MPRVKAAQAGRQSSAKRHLAEQFAVGEIITDMAKKEWKVGLPIGQGGFGCIYLADMNSSESVGSDAPCVVKVEPSDNGPLFTELKFYQRAAKPEQIQKWIRTRKLKYLGVPKYWGSGLHDKNGKSYRFMIMDRFGSDLQKIYEANAKRFSRKTVLQLSLRILDILEYIHEHEYVHGDIKASNLLLNYKNPDQVYLVDYGLAYRYCPEGVHKEYKEDPKRCHDGTIEFTSIDAHNGVAPSRRGDLEILGYCMIQWLTGHLPWEDNLKDPKYVRDSKIRYRENIASLMDKCFPEKNKPGEIAKYMETVKLLDYTEKPLYENLRDILLQGLKAIGSKDDGKLDLSVVENGGLKAKTITKKRKKEIEESKEPGVEDTEWSNTQTEEAIQTRSRTRKRVQK"}, "B2": {"name": "CD2BP2-C155 (protein, UniProt O95400 1-341)", "chain": "MPKRKVTFQGVGDEEDEDEIIVPKKKLVDPVAGSGGPGSRFKGKHSLDSDEEEDDDDGGSSKYDILASEDVEGQEAATLPSEGGVRITPFNLQEEMEEGHFDADGNYFLNRDAQIRDSWLDNIDWVKIRERPPGQRQASDSEEEDSLGQTSMSAQALLEGLLELLLPRETVAGALRRLGARGGGKGRKGPGQPSSPQRLDRLSGLADQMVARGNLGVYQETRERLAMRLKGLGCQTLGPHNPTPPPSLDMFAEELAEEELETPTPTQRGEAESRGDGLVDVMWEYKWENTGDAELYGPFTSAQMQTWVSEGYFPDGVYCRKLDPPGGQFYNSKRIDFDLYT"}, "B3": {"name": "GTSE1-C155 (protein, UniProt Q9NYZ3 1-739)", "chain": "MEGGGGRDEPSACRAGDVNMDDPKKEDILLLADEKFDFDLSLSSSSANEDDEVFFGPFGHKERCIAASLELNNPVPEQPPLPTSESPFAWSPLAGEKFVEVYKEAHLLALHIESSSRNQAAQAAKPEDPRSQGVERFIQESKLKINLFEKEKEMKKSPTSLKRETYYLSDSPLLGPPVGEPRLLASSPALPSSGAQARLTRAPGPPHSAHALPRESCTAHAASQAATQRKPGTKLLLPRAASVRGRSIPGAAEKPKKEIPASPSRTKIPAEKESHRDVLPDKPAPGAVNVPAAGSHLGQGKRAIPVPNKLGLKKTLLKAPGSTSNLARKSSSGPVWSGASSACTSPAVGKAKSSEFASIPANSSRPLSNISKSGRMGPAMLRPALPAGPVGASSWQAKRVDVSELAAEQLTAPPSASPTQPQTPEGGGQWLNSSCAWSESSQLNKTRSIRRRDSCLNSKTKVMPTPTNQFKIPKFSIGDSPDSSTPKLSRAQRPQSCTSVGRVTVHSTPVRRSSGPAPQSLLSAWRVSALPTPASRRCSGLPPMTPKTMPRAVGSPLCVPARRRSSEPRKNSAMRTEPTRESNRKTDSRLVDVSPDRGSPPSRVPQALNFSPEESDSTFSKSTATEVAREEAKPGGDAAPSEALLVDIKLEPLAVTPDAASQPLIDLPLIDFCDTPEAHVAVGSESRPLIDLMTNTPDMNKNVAKPSPVVGQLIDLSSPLIQLSPEADKENVDSPLLKF"}},
  "note": "These are yes or no findings as the source states them, for the method shown. In cells and extracts the contact can be indirect. Some entries that bind do so weakly or less than the wild type.",
  "data": [
    {"target": "MCM2-N154 (human (cDNA of HEK293T cells)) (UniProt P49736)", "assay": "split reporter; BiFC with split mScarlet3 (MCM2-N154 and target-C155) co-transfected into HEK293T cells; imaged 16 to 24 h after transfection, co-stained with an MCM2 antibody", "values": [
      {"molecule": "SENP3-C155 (from UniProt Q9H4L4 1-574)", "binding": "no binding"},
      {"molecule": "B1", "binding": "binds"},
      {"molecule": "B2", "binding": "binds"},
      {"molecule": "B3", "binding": "binds"}
    ]}
  ]
}
